Earlier results in patent US9528993B2, “Agents and methods related to screening for resistance to DR5 and reducing resistance to DR5 agonists” (The UAB Research Foundation, priority 2005, dated 2016).

System: GSK-3
Details: cited from earlier work

O=C1NC(=O)C(c2ccccc2[N+](=O)[O-])=C1Nc1ccc(O)c(Cl)c1 [SB415286]
inhibition of GSK-3: potent
